Experimental data from the supplement of paper PMC4604168 (melanoma cell lines).
The other results are listed elsewhere or left out. Many values rest on one well or one pass, so single values are uncertain.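 Imaging used 1,536-well plates; nuclei positive for cleaved PARP by antibody were divided by total DNA-stained nuclei to yield the apoptosis fraction. Doses for screening kept most cells viable, and cell lines differ markedly in resting and induced cleaved-PARP levels.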

system: UACC257; assay: cleaved PARP positive nuclei fraction relative to DMSO control; melanoma cells; higher = more apoptosis; details: library dose: low library concentration; 72 h

SMILES	cleaved PARP positive nuclei fraction [%]
C=CCn1c(=O)c2cnc(Nc3ccc(N4CCN(C)CC4)cc3)nc2n1-c1cccc(C(C)(C)O)n1 + COC(=O)c1sccc1S(=O)(=O)Nc1ccc(Nc2ccccc2)cc1OC [GSK0660] (first compound 0.02 µM, partner dose 1 µM)	103
C#Cc1cccc(Nc2ncnc3cc(OCCOC)c(OCCOC)cc23)c1 [erlotinib] + COc1ccc2c(c1)CCC1C2CCC2(C)C(NCCCCCCN3C(=O)C=CC3=O)CCC12 [U73122] (first compound 0.8 µM, partner dose 0.4 µM)	108
C=CCn1c(=O)c2cnc(Nc3ccc(N4CCN(C)CC4)cc3)nc2n1-c1cccc(C(C)(C)O)n1 + O=C1NC(=O)/C(=C/c2ccc(-c3ccc(F)cc3O)o2)S1 [AS252424] (first compound 0.02 µM, partner dose 1 µM)	153
CC1(C)NC(=O)N(c2ccc([N+](=O)[O-])c(C(F)(F)F)c2)C1=O [nilutamide] + COc1ccc(-c2ccc3c(N4CCOCC4)nc(N4C[C@@H](C)O[C@@H](C)C4)nc3n2)cc1CO [KU0063794] (first compound 1 µM, partner dose 0.02 µM)	81.6
CC(C)(C)c1cnc(CSc2cnc(NC(=O)C3CCNCC3)s2)o1 + Oc1nc(-c2ccc(C(F)(F)F)cc2)nc2c1CSCC2 [XAV939] (first compound 0.01 µM, partner dose 2 µM)	77.1
COCC[n+]1c2c(n(Cc3cnccn3)c1C)C(=O)c1ccccc1C2=O + COc1ccc(COc2ccc(Cc3cnc(N)nc3N)cc2OC)cc1 [GW2580] (first compound 0.0004 µM, partner dose 1 µM)	206
Nc1cccc2c1CN(C1CCC(=O)NC1=O)C2=O (stereo not drawn) [lenalidomide] + COc1cc2ncnc(Nc3ccc(Oc4ccccc4)cc3)c2cc1OC [SrcI1] (first compound 1 µM, partner dose 2 µM)	140
CO[C@@H]1[C@H](N(C)C(=O)c2ccccc2)C[C@H]2O[C@]1(C)n1c3ccccc3c3c4c(c5c6ccccc6n2c5c31)C(=O)NC4 [Midostaurin] + COc1ccc2c(c1)CCC1C2CCC2(C)C(NCCCCCCN3C(=O)C=CC3=O)CCC12 [U73122] (first compound 0.08 µM, partner dose 0.4 µM)	84.7

system: UACC62; assay: as above; details: library dose: low library concentration; 72 h

SMILES	cleaved PARP positive nuclei fraction [%]
C=CCn1c(=O)c2cnc(Nc3ccc(N4CCN(C)CC4)cc3)nc2n1-c1cccc(C(C)(C)O)n1 + CCCCCCCCCCCC1=C(O)C(=O)C=C(O)C1=O [Embelin] (first compound 0.02 µM, partner dose 1.2 µM)	405
Cc1cc(N2CCOCC2)cc2[nH]c(-c3c(NC[C@@H](O)c4cccc(Cl)c4)cc[nH]c3=O)nc12 + COc1ccc(-c2ccc3c(N4CCOCC4)nc(N4C[C@@H](C)O[C@@H](C)C4)nc3n2)cc1CO [KU0063794] (first compound 0.2 µM, partner dose 0.02 µM)	40.9
COCC[n+]1c2c(n(Cc3cnccn3)c1C)C(=O)c1ccccc1C2=O + O=C1NC(=O)/C(=C/c2ccc(-c3ccc(F)cc3O)o2)S1 [AS252424] (first compound 0.0004 µM, partner dose 1 µM)	107
Cn1nnc2c(C(N)=O)ncn2c1=O [temozolomide] + CCc1ccc(CCOc2ccc(CC3SC(=O)NC3=O)cc2)nc1 [pioglitazone] (first compound 2 µM, partner dose 2 µM)	60.8
C#Cc1cccc(Nc2ncnc3cc(OCCOC)c(OCCOC)cc23)c1 [erlotinib] + Oc1cc(-c2nc(-c3ccccc3)[nH]c2-c2ccncc2)ccc1Cl [L779450] (first compound 0.8 µM, partner dose 0.2 µM)	85.8
Cc1ccc(NC(=O)c2cccc(N(C)C)c2)cc1NC(=O)c1ccc(O)cc1 + CCN(CC)CCCCNc1ncc2cc(-c3cc(OC)cc(OC)c3)c(NC(=O)NC(C)(C)C)nc2n1 [PD173074] (first compound 2 µM, partner dose 0.1 µM)	129
Cn1cncc1[C@@](N)(c1ccc(Cl)cc1)c1ccc2c(c1)c(-c1cccc(Cl)c1)cc(=O)n2C [tipifarnib] + CCCCCCCCCCCC1=C(O)C(=O)C=C(O)C1=O [Embelin] (first compound 0.01 µM, partner dose 1.2 µM)	96
O=C(CCCCCCC(=O)Nc1ccccc1)NO [vorinostat] + c1cc(-c2cnn3cc(-c4ccc(OCCN5CCCCC5)cc4)cnc23)ccn1 [Dorsomorphin] (first compound 0.08 µM, partner dose 0.4 µM)	82.7
NC(=O)Nc1cc(-c2cccc(F)c2)sc1C(=O)N[C@H]1CCCNC1 + COC(=O)c1sccc1S(=O)(=O)Nc1ccc(Nc2ccccc2)cc1OC [GSK0660] (first compound 0.02 µM, partner dose 1 µM)	36.5
Cc1nc(Nc2ncc(C(=O)Nc3c(C)cccc3Cl)s2)cc(N2CCN(CCO)CC2)n1 [dasatanib] + Oc1nc(-c2ccc(C(F)(F)F)cc2)nc2c1CSCC2 [XAV939] (first compound 0.004 µM, partner dose 2 µM)	42
Cn1cncc1[C@@](N)(c1ccc(Cl)cc1)c1ccc2c(c1)c(-c1cccc(Cl)c1)cc(=O)n2C [tipifarnib] + Oc1cc(-c2nc(-c3ccccc3)[nH]c2-c2ccncc2)ccc1Cl [L779450] (first compound 0.01 µM, partner dose 0.2 µM)	134
O=C(CCCCCCC(=O)Nc1ccccc1)NO [vorinostat] + COc1ccc(COc2ccc(Cc3cnc(N)nc3N)cc2OC)cc1 [GW2580] (first compound 0.08 µM, partner dose 1 µM)	57.1
O=C(CCCCCCC(=O)Nc1ccccc1)NO [vorinostat] + COc1cc(N2CCC(N3CCN(C)CC3)CC2)ccc1Nc1ncc(Cl)c(Nc2ccccc2S(=O)(=O)C(C)C)n1 [NVP-TAE684] (first compound 0.08 µM, partner dose 0.08 µM)	81.1
OCCn1cc(-c2cnc3nnn(Cc4ccc5ncccc5c4)c3n2)cn1 + Oc1nc(-c2ccc(C(F)(F)F)cc2)nc2c1CSCC2 [XAV939] (first compound 1 µM, partner dose 2 µM)	22.2
Cn1nnc2c(C(N)=O)ncn2c1=O [temozolomide] + COc1ccc(COc2ccc(Cc3cnc(N)nc3N)cc2OC)cc1 [GW2580] (first compound 2 µM, partner dose 1 µM)	90
C=CCn1c(=O)c2cnc(Nc3ccc(N4CCN(C)CC4)cc3)nc2n1-c1cccc(C(C)(C)O)n1 + COc1ccc(COc2ccc(Cc3cnc(N)nc3N)cc2OC)cc1 [GW2580] (first compound 0.02 µM, partner dose 1 µM)	76.6
NC(=O)Nc1cc(-c2cccc(F)c2)sc1C(=O)N[C@H]1CCCNC1 + Cn1cc(/C=C2\C(=O)Nc3cccnc32)c2ccccc21 [GW441756] (first compound 0.02 µM, partner dose 0.4 µM)	65.7
CO[C@@H]1[C@H](N(C)C(=O)c2ccccc2)C[C@H]2O[C@]1(C)n1c3ccccc3c3c4c(c5c6ccccc6n2c5c31)C(=O)NC4 [Midostaurin] + O=C(O)C(=O)Nc1sc2c(c1C(=O)O)CCNC2 [TCS401] (first compound 0.08 µM, partner dose 1.66667 µM)	29.5
C#Cc1cccc(Nc2ncnc3cc(OCCOC)c(OCCOC)cc23)c1 [erlotinib] + COc1cc2ncnc(Nc3ccc(Oc4ccccc4)cc3)c2cc1OC [SrcI1] (first compound 0.8 µM, partner dose 2 µM)	153
Cn1cncc1[C@@](N)(c1ccc(Cl)cc1)c1ccc2c(c1)c(-c1cccc(Cl)c1)cc(=O)n2C [tipifarnib] + COc1ccc2c(c1)CCC1C2CCC2(C)C(NCCCCCCN3C(=O)C=CC3=O)CCC12 [U73122] (first compound 0.01 µM, partner dose 0.4 µM)	453
O=C(Nc1cccc(Cl)c1)Nc1ncc(CCNc2ncnc3ccsc23)s1 + O=C(O)C(=O)Nc1sc2c(c1C(=O)O)CCNC2 [TCS401] (first compound 0.0008 µM, partner dose 1.66667 µM)	43.6
C=CCn1c(=O)c2cnc(Nc3ccc(N4CCN(C)CC4)cc3)nc2n1-c1cccc(C(C)(C)O)n1 + O=S(=O)(c1ccccc1)N(CC(F)(F)F)c1ccc(C(O)(C(F)(F)F)C(F)(F)F)cc1 [T0901317] (first compound 0.02 µM, partner dose 1.4 µM)	168
CC(C)(C)c1cnc(CSc2cnc(NC(=O)C3CCNCC3)s2)o1 + c1cc(-c2cnn3cc(-c4ccc(OCCN5CCCCC5)cc4)cnc23)ccn1 [Dorsomorphin] (first compound 0.01 µM, partner dose 0.4 µM)	94.8
O=C(CCCCCCC(=O)Nc1ccccc1)NO [vorinostat] + O=S(=O)(c1ccccc1)N(CC(F)(F)F)c1ccc(C(O)(C(F)(F)F)C(F)(F)F)cc1 [T0901317] (first compound 0.08 µM, partner dose 1.4 µM)	80.4
Cn1c(Nc2ccc(C(F)(F)F)cc2)nc2cc(Oc3ccnc(-c4ncc(C(F)(F)F)[nH]4)c3)ccc21 + COC(=O)c1sccc1S(=O)(=O)Nc1ccc(Nc2ccccc2)cc1OC [GSK0660] (first compound 0.08 µM, partner dose 1 µM)	303

3 records picked at random from the list so far, as already listed:
SMILES	cleaved PARP positive nuclei fraction [%]
OCCn1cc(-c2cnc3nnn(Cc4ccc5ncccc5c4)c3n2)cn1 + Oc1nc(-c2ccc(C(F)(F)F)cc2)nc2c1CSCC2 [XAV939] (first compound 1 µM, partner dose 2 µM)	22.2
O=C(CCCCCCC(=O)Nc1ccccc1)NO [vorinostat] + COc1ccc(COc2ccc(Cc3cnc(N)nc3N)cc2OC)cc1 [GW2580] (first compound 0.08 µM, partner dose 1 µM)	57.1
Cn1cncc1[C@@](N)(c1ccc(Cl)cc1)c1ccc2c(c1)c(-c1cccc(Cl)c1)cc(=O)n2C [tipifarnib] + CCCCCCCCCCCC1=C(O)C(=O)C=C(O)C1=O [Embelin] (first compound 0.01 µM, partner dose 1.2 µM)	96
